Assay [1] has as its target T1, hRYKWD.Fc (human, UniProt P34925 66-194, limits assumed).
T1 construct: domain: WIF domain; also called hRYKWD.Fc.FLAG; fusion protein containing the human RYK WIF domain; not shown: Fc region of human IgG1
In words: competitive phage ELISA on hRYKWD.Fc (competitor recombinant Wnt3a). In general terms: An ELISA detects its analyte on a solid surface through an enzyme-linked reagent.

By UniProt entry, the sequences of proteins in these tests, tags left out. Residues count along the entry.
UniProt P34925, residues 66-194: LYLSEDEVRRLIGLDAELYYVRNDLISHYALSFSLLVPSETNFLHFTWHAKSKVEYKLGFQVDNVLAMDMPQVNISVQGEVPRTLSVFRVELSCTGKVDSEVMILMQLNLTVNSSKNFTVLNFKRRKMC

Assay [2] addresses T1, hRYKWD.Fc. In words: phage display screen, direct binding and competitive ELISA (phage-displayed clone; competitor recombinant mouse Wnt3a).

The values that follow come from US20160053022A1 (PETER MACCALLUM CANCER INSTITUTE, published 2016).

These are yes or no findings as the source states them, for the method shown. Some binding calls cover weakened binding; strength is not graded here.

B1: scFv3 (scFv)
scFv: EVQLLESGGGLVQPGGSLRLSCAASGFTFSSYAMSWVRQAPGKGLEWVSLIHKAGHTTQYADSVKGRFTISRDNSKNTLYLQMNSLRAEDTAVYYCAKGYRHFDYWGQGTLVTVSSGGGGSGGGGSGGGGSTDIQMTQSPSSLSASVGDRVAITCRASQSISSYLNWYQQKPGKAPKLLIYRASNLQSGVPSRFSGSGSGTDFTLTISSLQPEDFATYYCQQAVGSPRTFGQGTKVEIKRHHHHHH
Turning to B1, the binding result with hRYKWD.Fc [1] and in the assay with hRYKWD.Fc [2] was “binds” in each case.

B2: scFvN3 (scFv)
scFv: EVQLLESGGGLVQPGGSLRLSCAASGFTFSSYAMSWVRQAPGKGLEWVSTISRVGFPTVYADSVKGRFTISRDNSKNTLYLQMNSLRAEDTAVYYCAKRGHPFDYWGQGTLVTVSSGGGGSGGGGSGGGGSTDIQMTQSPSSLSASVGDRVTITCRASQSISSYLNWYQQKPGKAPKLLIYQASVLQSGVPSRFSGSGSGTDFTLTISSLQPEDFATYYCQQPGPAPPTFGQGTKVEIKRHHHHHH
B2: the binding entry with hRYKWD.Fc [1] and in the assay with hRYKWD.Fc [2] was “binds” throughout.
